In article PMC11821514 (Nature Cell Biology, 2025):
No constants are given. Whether binding was seen depends on the method and setting. Some results given as binding are weak or reduced against the parent protein; the word gives no strength. Sequences can lack the tags named with a protein.

T1: GST–Ape1^1–45 (budding yeast) (UniProt P14904)
T1 sequence: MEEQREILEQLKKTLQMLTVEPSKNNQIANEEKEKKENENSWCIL

T2: Vac8 on purified vacuoles (budding yeast (endogenous in yeast vacuoles)) (UniProt P39968)
T2 sequence: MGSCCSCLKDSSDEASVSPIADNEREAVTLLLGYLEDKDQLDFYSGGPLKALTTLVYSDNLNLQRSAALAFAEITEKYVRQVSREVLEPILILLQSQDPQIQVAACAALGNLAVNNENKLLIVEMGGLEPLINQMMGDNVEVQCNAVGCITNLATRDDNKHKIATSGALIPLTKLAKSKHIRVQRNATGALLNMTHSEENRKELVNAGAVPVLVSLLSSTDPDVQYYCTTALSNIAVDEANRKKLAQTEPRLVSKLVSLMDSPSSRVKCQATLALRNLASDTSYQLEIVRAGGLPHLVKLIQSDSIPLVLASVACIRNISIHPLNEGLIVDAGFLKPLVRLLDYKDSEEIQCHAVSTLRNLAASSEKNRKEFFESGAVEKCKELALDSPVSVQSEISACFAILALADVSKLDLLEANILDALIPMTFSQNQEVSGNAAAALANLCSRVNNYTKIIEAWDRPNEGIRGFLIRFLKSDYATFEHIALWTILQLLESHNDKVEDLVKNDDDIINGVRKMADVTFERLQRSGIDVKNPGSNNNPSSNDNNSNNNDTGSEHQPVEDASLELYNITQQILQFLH


Assays:
[1] = biological target: T1, GST–Ape1^1–45 (budding yeast); test: pull-down; GST fusions on GSH beads incubated with purified recombinant Atg19^3D, 20 min at room temperature; six washes with GST-wash buffer containing 0.02% Tween-20; immunoblotting; both purified
[2] = biological target: T2, Vac8 on purified vacuoles (budding yeast (endogenous in yeast vacuoles)); test: binding of condensates to purified vacuoles, fluorescence microscopy; purified vacuoles of wild-type or vac8∆ cells (Vph1–4xmCherry atg15∆ pep4∆) incubated with recombinant GFP–Atg11 droplets; condensates bound to vacuoles counted; only the binder purified

| Binder | binding [1] | binding [2] |
| --- | --- | --- |
| Atg19^3D (natural protein, budding yeast, UniProt P35193 1-415, looked up, Atg19, budding yeast, phospho-mimetic mutant S390D, S391D, S396D; also called purified recombinant Atg19^3D; source: E. coli BL21(DE3), expressed as GST–Atg19^3D from pGEX-4T.1, purified (GSH beads, thrombin elution, Superdex200); not shown: GST, N-terminal, cleaved) MNNSKTNQQMNTSMGYPLTVYDECNKFQLIVPTLDANIMLWCIGQLSLLNDSNGCKHLFWQPNDKSNVRILLNNYDYGHLFKYLQCQRKCSVYIGEGTLKKYNLTISTSFDNFLDLTPSEEKESLCREDAHEDPVSPKAGSEEEISPNSTSNVVVSRECLDNFMKQLLKLEESLNKLELEQKVTNKEPNHRISGTIDIPEDRSELVNFFTELKTVKQLEDVFQRYHDYERLSQECDSKTEIASDHSKKETKIEVEPPNERSLQITMNQRDNSLYFQLFNNTNSVLAGNCKLKFTDAGDKPTTQIIDMGPHEIGIKEYKEYRYFPYALDLEAGSTIEIENQYGEVIFLGKYGSSPMINLRPPSRLSAESLQASQEPFYSFQIDTLPELDDDDIISTDISLSYDGDDNEKALTWEEL | binds weakly | – |
| StrepII–GFP–Atg11 (protein, UniProt Q12527 1-1178) MADADEYSTAPTQQEITPLQTTATIINAISGECITTNVDFFVSLDKFKQFIARKWKIPPDQLLILLPYGNKLKPSMFKELLINRSFTLNDFYVYDRRLFSLVSKPTPTNLLTSKDSNPMNSPNSNDLTETLEYLIKNSHISQYQGSDTIMIKPMPSPLEDADVDLSRLNYHSVTSLLTTNLGWLSALEIDVHYFKSLIPDIIAHIKRIFDGLTVCSQYLKLYCFDVESLYNSNVQFLNQLVDNGMTSKWEKCFNDTLSKLTALEGDSLQKFINIESLLENEKSVKILNHSINGKLNKIKREIDENASFRDIITVNIDRLRQMFTPNESKFELEDQMAESFEVLVSEMRTRSRNVLDKEEEEFNSQEFLKSMNVMLEKDKKESVKTLFTISQALYSQIGELIDLKKSLQKHAVAILGNIAFTQMEILGIKRLLLNECNKDLELYKKYEVEFAQVEDLPLIYGLYLIEKYRRLSWFQQILSFISNFNQDLELFKQNELRTRNKWVKNFGSIATVFCEDLLSSSDFKRLNEYHSHTSPPNEDEEDENENSIANYRQDLVKVSQAIDNYMTQIKETDVSEPIIDLLSKTLFETKRFHIIYSNFKNNNNNSSNGNSISPEGSIALKSDDVVKGYKTRIKKLESLLHEFQYSDIGHWPQGVLNTHLKPFRGSATSINKKKFLGASVLLEPANISEVNIDSVSQANNHQIQELESNVDDLLHQLQLLKEENNRKSMQISEMGKKISDLEVEKTAYRETLTNLNQELARLTNEEQSHRTEIFTLNASFKKQLNDIISQDNEKIEKLTGDYDDVSKSRERLQMDLDESNKKHEQEVNLLKADIERLGKQIVTSEKSYAETNSSSMEKGEKFETIPLAEDPGRENQISAYTQTLQDRIFDIISTNIFILENIGLLLTFDNNNNIQIRRVKGLKKGTAQSNILDESTQMLDAHDNSLIKSPVFQKLKDEYELIKSVANGSEKDTQQSIFLGNITQLYDNKLYEVAVIRRFKDIETLAKKLTKENKIKRTLLERFQREKVTLRNFQIGDLALFLPTRENVNSVGSMSSSTSSLSSSFSSVDLSTPPPLDAMSIQSSPSVIHSNVINQASISGRDKNKLMRPWAAFTAFEESTRYFLKDEKGLTKGKEWFVGRIVTLEHFVADSPSNNPFRLPKGSVWFQVTAVVVSYQGV | – | binds |
